Measurements taken from PubChem BioAssay AID540276 (National Center for Advancing Translational Sciences (NCATS), 2011).
Out of some 300,000 compounds screened, about 5,400 (1.8%) were called active. Inconclusive results, whose numbers are uncertain, are shown with a selection of clear calls. Calls follow the shape of the full dose curve; tested in HEK293 cells. Potencies beside an inconclusive call are fits to weak or partial responses and may not hold up.

Experiment: qHTS for inhibitors of binding or entry into cells for Marburg Virus
Conditions: Marburg virus pseudotyped entry inhibition, cell reporter; activity change, negative = inhibition: at 37.8 µM (top of the series) unless noted
% is scaled to controls: 0 for no effect and ±100 for the full control effect; potency is read from the fitted curve at half-maximal effect.

SMILES	Potency	activity change, negative = inhibition
N#CCCn1cc(C(=O)Nc2ccccc2Br)c(-c2cccs2)n1	inconclusive: 0.0052 µM [activator, full curve, poor fit]	–
O=C1CCCC(=O)N1c1ccc(O)cc1	–	inactive: 10.1%
O=C(Nc1ccc(S(=O)(=O)N2CCCCC2)cc1)C1CCCN(C(=O)c2ccc(Cl)cc2)C1 (stereo not drawn)	inconclusive: 12.6 µM [inhibitor, partial curve, poor fit]	–
O=C(c1ccc([N+](=O)[O-])s1)N1CCN(c2cccc(Cl)c2)CC1	inconclusive: 4.47 µM [inhibitor, partial curve, poor fit]	–
CCCOc1ccc(/C=N/NC(=O)c2nnn(-c3nonc3N)c2-c2cccs2)cc1OC	–	inactive: 2.12% [at 46.1 µM]
CCOc1ccc(NCc2nnc(SCc3ccccc3Cl)n2-c2ccccc2)cc1	inconclusive: 29.1 µM [inhibitor, single point]	–
COc1cc(NC(=O)c2c(F)cccc2F)nc(OC)n1	inconclusive: 16.4 µM [activator, partial curve, poor fit]	–
CC(NC(=O)Cc1ccc(S(=O)(=O)N2CCOCC2)s1)c1ccc(Cl)c(Cl)c1 (stereo not drawn)	inconclusive: 22.4 µM [inhibitor, partial curve, poor fit]	–
CN(C)S(=O)(=O)Oc1ccc(C(=O)Nc2cccc(Cl)c2)cc1	inconclusive: 14.1 µM [activator, single point]	–
O=C(Nc1cc(F)cc(F)c1)c1ccc(NCCCN2CCCCCC2)c([N+](=O)[O-])c1	inconclusive: 35.5 µM [inhibitor, single point]	–
Cc1ccc(OCC(=O)Nc2ccc(N3CCN(C(=O)c4ccco4)CC3)cc2)c(C)c1	inconclusive: 11.2 µM [inhibitor, partial curve, poor fit]	–
COc1ccccc1OCCC(=O)O	–	inactive: 0.795% [at 46.1 µM]
Cc1ccc(S(=O)(=O)N2CN(Cc3ccco3)c3nc4ccccc4nc32)cc1C	inconclusive: 17.8 µM [inhibitor, single point]	–
CCCC1O[C@@H]2CC3C4CCC5=CC(=O)C=C[C@]5(C)C4C(OC(C)=O)C[C@]3(C)[C@]2(C(=O)COC(C)=O)O1 (stereo partly drawn)	inconclusive: 29.1 µM [inhibitor, single point]	–
COc1cc(OC)cc(C(=O)N/N=C/c2ccc(OC)c(COc3ccc(F)cc3)c2)c1	inconclusive: 3.55 µM [inhibitor, full curve, poor fit]	–
CC(C(=O)NC1CCCC1)N(C(=O)Cn1nnc(-c2ccc(F)cc2)n1)c1ccccc1F (stereo not drawn)	active: 8.2 µM	–
Cc1cccc(NC(=S)N2CCOCC2)c1C	–	inactive: -1.96%
COC(=O)c1cc(Cl)c(NC(=O)c2cc3ccccc3o2)cc1OC	inconclusive: 15.8 µM [activator, partial curve, poor fit]	–
COc1cccc(C2CC(c3ccccc3)=NN2S(=O)(=O)c2ccc(C)cc2)c1OC (stereo not drawn)	–	inactive: 6.1% [at 46.1 µM]
O=C(O)CN1C(=O)c2cccc3c(Br)ccc1c23	–	inactive: -1.21% [at 46.1 µM]
O=C(CCl)NCCNC(=O)c1cc(OCC(F)(F)F)ccc1OCC(F)(F)F	inconclusive: 35.5 µM [inhibitor, single point]	–
O=[N+]([O-])c1ccc(NNC(=S)Nc2ccc(F)cc2)cc1	inconclusive: 29.1 µM [inhibitor, single point]	–
CC(=O)Nc1sc2c(c1C(c1ccccc1)N1CCOCC1)CCCC2 (stereo not drawn)	–	inactive: 7.24%

SMILES	Potency	activity change, negative = inhibition
CC1CCCN(CCOCCSc2ccccc2)C1 (stereo not drawn)	inconclusive: 8.2 µM [inhibitor, partial curve, poor fit]	–
CS(=O)c1ccccc1COC(=O)Nc1ccccc1 (stereo not drawn)	–	inactive: 4.34% [at 46.1 µM]
CCC(=O)Nc1nnc(S(=O)(=O)N(CC)c2cc(C)cc(C)c2)s1	inconclusive: 1.26 µM [inhibitor, single point]	–
COc1ccc(OCCOC(=O)c2ccc(-n3cnnn3)cc2)cc1	–	inactive: -0.224%
Oc1ccc(Br)cc1-c1ccn[nH]1	inconclusive: 2.82 µM [activator, partial curve, poor fit]	–
COC(=O)C(Cc1ccccc1)NC(=O)CNC(=O)c1sc2ccccc2c1Cl (stereo not drawn)	inconclusive: 35.5 µM [inhibitor, single point]	–
COc1cc(-n2c(=O)c3ccccc3n(Cc3cccc(Cl)c3)c2=O)cc(OC)c1OC	–	inactive: 12.9% [at 46.1 µM]
N#Cc1ccc(Oc2nc(Nc3ccc(F)cc3)nc(N3CCCC3)n2)cc1	–	inactive: -6.32%
Cc1ccc(/C=N\NC(=O)CC(=O)NCCc2ccccc2)cc1	inconclusive: 35.5 µM [inhibitor, single point]	–
Cc1cc2oc(=O)c(CC(=O)O)c(C)c2c2occ(-c3ccccc3)c12	inconclusive: 3.55 µM [activator, single point]	–
Cc1ccc(C)c(Cn2c(=O)n(-c3ccccc3)c(=O)c3c4c(sc32)CCCC4)c1	–	inactive: -2.39% [at 46.1 µM]
COc1ccc(CCN2C(=O)N(c3cccc(OC)c3)C(=O)C2CC(=O)Nc2ccccc2)cc1 (stereo not drawn)	inconclusive: 2.51 µM [inhibitor, partial curve, poor fit]	–
C[N+]1=C(/C=C/Nc2ccccc2)C(C)(C)c2ccccc21	inconclusive: 14.1 µM [inhibitor, partial curve, poor fit]	–
Cc1ccc(NC(=O)C(=O)NCCN2CCN(S(C)(=O)=O)CC2)cc1C	inconclusive: 6.31 µM [activator, single point]	–
Cc1c(C(=O)Nc2cccc(S(=O)(=O)N3CCOCC3)c2)oc2ccc(Br)cc12	inconclusive: 2.82 µM [inhibitor, single point]	–
COCCCNC(=O)c1ccc2c(c1)OCO2	–	inactive: 27.1%
COc1ccc2sc3ccccc3c(=O)c2c1	–	inactive: -15.6%
CCOC(=O)Cc1ccc(NC(=O)NC(C)c2c(-n3cccc3)sc(C)c2C)cc1 (stereo not drawn)	inconclusive: 35.5 µM [inhibitor, partial curve, poor fit]	–
Cc1ccc(C)c(SCC(=O)OC/C(O)=C(\C#N)c2nc3ccccc3[nH]2)c1	inconclusive: 12.6 µM [inhibitor, partial curve, poor fit]	–
Cc1cc2nc(N3C(=O)CNC3=S)sc2cc1C	inconclusive: 7.08 µM [inhibitor, partial curve, poor fit]	–
O=C(C[C@H]1C(=O)N(c2ccccc2)C[C@@H]1c1ccccc1)Nc1ccccc1	inconclusive: 0.0125 µM [activator, full curve, poor fit]	–
O=[N+]([O-])c1ccccc1C=NNc1ccccc1	inconclusive: 31.6 µM [inhibitor, single point]	–
CC(=O)Nc1cc2c(cc1Cl)Cc1cc(Cl)ccc1-2	–	inactive: 20.9% [at 46.1 µM]

SMILES	Potency	activity change, negative = inhibition
COc1ccc(OC)c(NC(=O)CSc2nnc(CNC(=O)COc3ccc(Cl)cc3)o2)c1	inconclusive: 0.631 µM [activator, single point]	–
CCOc1cc(/C=C/c2ccc3cccc([N+](=O)[O-])c3n2)ccc1OCC(=O)N(C)C	inconclusive: 22.4 µM [inhibitor, single point]	–
COc1ccc(NC(=O)c2c(F)cccc2F)cc1S(=O)(=O)Nc1ccc(Br)cc1	inconclusive: 35.5 µM [inhibitor, partial curve, poor fit]	–
Cc1cc(C)n(C2CC(=O)N(c3ccc(Cl)c(Cl)c3)C2=O)n1 (stereo not drawn)	–	inactive: -2.74% [at 46.1 µM]
N/C(=N\OC(=O)c1ccccc1)c1ccncc1	–	inactive: 14.6% [at 46.1 µM]
Cc1ccc2oc(=O)c(/C=C(\O)CC(C)C)nc2c1	–	inactive: -11%
CS(=O)(=O)c1ncc(Cl)c(C(=O)Nc2ccc3ccccc3c2)n1	active: 8.91 µM	–
CCC(=O)c1cn(CC(=O)Nc2cccc(OC)c2)c2ccccc12	inconclusive: 5.01 µM [inhibitor, single point]	–
C/C(=N\NC(=O)c1cc(-c2cccs2)nc2ccccc12)c1ccccn1	active: 4.61 µM	–
COc1ccc(C(=O)N(CN2CCCC2=O)c2cc(C)on2)cc1OC	inconclusive: 6.51 µM [inhibitor, single point]	–
CN(C)CCn1c2c(c(SCC(=O)N3CCc4ccccc43)nc1=O)CCCC2	–	inactive: -28.6%
CC(=O)Nc1ccc(S(=O)(=O)Nc2nnc(CC(C)(C)C)s2)cc1	–	inactive: -6.19% [at 46.1 µM]
O=C(Nc1ccc(C(=O)O)cc1)/C(=C\c1cccc([N+](=O)[O-])c1)NC(=O)c1ccc(Br)o1	inconclusive: 14.1 µM [activator, single point]	–
CCOc1ccc(CN2CCN(Cc3cc4c(cc3Cl)OCO4)CC2CCO)cc1 (stereo not drawn)	inconclusive: 35.5 µM [inhibitor, single point]	–
C=CCN1CCN(C(=O)c2cc3c(s2)CCC(CC)C3)CC1 (stereo not drawn)	inconclusive: 6.31 µM [activator, full curve, poor fit]	–
CCOc1ccc2[nH]c(=O)c(C(c3nnnn3Cc3ccco3)N3CCC(C)CC3)cc2c1 (stereo not drawn)	inconclusive: 20 µM [inhibitor, partial curve, poor fit]	–
CCCCN(CCCC)S(=O)(=O)c1ccc(NS(=O)(=O)c2ccc(NC(C)=O)cc2)cc1	–	inactive: -4.35%
N#Cc1ccc(/C=C/C(=O)c2cccnc2)cc1	inconclusive: 23.1 µM [inhibitor, single point]	–
Nc1nnc(CC(c2ccccc2)c2ccccc2)s1	inconclusive: 0.259 µM [inhibitor, partial curve, poor fit]	–
COc1cc(NC(=O)COc2c(C)cc(C)cc2[N+](=O)[O-])c(OC)cc1Cl	–	inactive: 5.17%
O=[N+]([O-])c1cc(S(=O)(=O)N2CCCC2)ccc1NN=C1CCCC1	inconclusive: 0.794 µM [activator, partial curve, poor fit]	–
CCOc1ccccc1C(=O)N1CCC(n2nnc3cc(C)ccc32)CC1	inconclusive: 35.5 µM [inhibitor, partial curve, poor fit]	–

Sorted by SMILES length (falling): part of the list above.
SMILES	Potency	activity change, negative = inhibition
Cc1cc2oc(=O)c(CC(=O)O)c(C)c2c2occ(-c3ccccc3)c12	inconclusive: 3.55 µM [activator, single point]	–
COc1ccc(C(=O)N(CN2CCCC2=O)c2cc(C)on2)cc1OC	inconclusive: 6.51 µM [inhibitor, single point]	–
Cc1ccc(/C=N\NC(=O)CC(=O)NCCc2ccccc2)cc1	inconclusive: 35.5 µM [inhibitor, single point]	–
